# Data taken from patent US20100056516A1 (priority 2006, published 2010).
# Some of these results come from one statement about several compounds together.
# Molecular target: HIV-1 reverse transcriptase (RNase H) (Human immunodeficiency virus type 1 group M subtype B, UniProt P04585)
# Assay: ASH assay: RNase H mediated RNA cleavage (ECL format, BioVeris M384)
# Format: biochemical
# Settings: 5'-ruthenium oligo, BioVeris M384 analyzer
row,Compound,IC50
1,"CCOC(=O)c1c(O)c2cc(C(=O)N3CCC(Cc4ccccc4)C3)cnc2n(O)c1=O (centres unmarked) [Example 85, Ethyl 6-[(3-benzylpyrrolidin-1-yl)carbonyl]-1,4-dihydroxy-2-oxo-1,2-dihydro-1,8-naphthyridine-3-carboxylate]",< 100 µM
2,"NC1(c2cccc(-c3ccc(-c4cc(=O)n(O)c5ncccc45)cc3)c2)CC1 [Example 238, 4-[3′-(1-aminocyclopropyl)biphenyl-4-yl]-1-hydroxy-1,8-naphthyridin-2(1H)-one]",< 100 µM
3,"CCOC(=O)c1c(N)c2cccnc2n(O)c1=O [Example 97, Ethyl 4-amino-1-hydroxy-2-oxo-1,2-dihydro-1,8-naphthyridine-3-carboxylate]",< 100 µM
4,"O=C(NC1CC1)c1c(O)c2cccnc2n(O)c1=O [Example 6, N-Cyclopropyl-1,4-dihydroxy-2-oxo-1,2-dihydro-1,8-naphthyridine-3-carboxamide]",< 100 µM
5,"O=c1cc(N2CCc3ccc(-c4ccncc4)cc3C2)c2cccnc2n1O [Example 253, 1-hydroxy-4-(7-pyridin-4-yl-3,4-dihydroisoquinolin-2(1H)-yl)-1,8-naphthyridin-2(1H)-one]",< 100 µM
6,NCc1cccc(CNC(=O)Cc2c(O)c3cccnc3n(O)c2=O)c1 [Example 224],< 100 µM
7,"CNC(=O)c1c(O)c2cccnc2n(O)c1=O [Example 24, 1,4-Dihydroxy-N-methyl-2-oxo-1,2-dihydro-1,8-naphthyridine-3-carboxamide]",< 100 µM
8,"O=C(NCC1CCNC1)c1c(O)c2cccnc2n(O)c1=O (centres unmarked) [Example 25, 1,4-Dihydroxy-2-oxo-N-(pyrrolidin-3-ylmethyl)-1,2-dihydro-1,8-naphthyridine-3-carboxamide]",< 100 µM
9,"CCOC(=O)c1ccnc2c1c(O)cc(=O)n2O [Example 88, Ethyl 5,8-dihydroxy-7-oxo-7,8-dihydro-1,8-naphthyridine-4-carboxylate]",< 100 µM
10,"O=c1c(-c2ccccc2)c(O)c2cc(-c3ccccc3)cnc2n1O [Example 51, 1,4-Dihydroxy-3,6-diphenyl-1,8-maphthyridin-2(1H)-one]",< 100 µM
11,"NCc1cccc(CNc2cc(=O)n(O)c3ncccc23)c1 [Example 159, 4-{[3-(aminomethyl)benzyl]amino}-1-hydroxy-1,8-naphthyridin-2(1H-one)]",< 100 µM
12,"CC(=O)c1cnc2c(c1)c(O)c(-c1ccccc1)c(=O)n2O [Example 71, 6-acetyl-1,4-dihydroxy-3-phenyl-1,8-naphthyridin-2(1H)-one]",< 100 µM
13,"O=c1c(-c2ccccc2Cl)c(O)c2cccnc2n1O [Example 35, 3-(2-Chlorophenyl)-1,4-dihydroxy-1,8-naphthyridin-2(1H)-one]",< 100 µM
14,"O=c1cc(NCc2cnc(-c3ccccc3)[nH]2)c2cccnc2n1O [Example 167, 1-hydroxy-4-{[(2-phenyl-1-imidazole-5-yl)methyl]amino}-1,8-naphthyridin-2 (1H-one)]",< 100 µM
15,"O=c1c(C2CCCC2)c(O)c2cccnc2n1O [Example 41, 3-Cyclopentyl-1,4-dihydroxy-1,8-naphthyridin-2(1H)-one]",< 100 µM
16,"CCOC(=O)c1c(O)c2cc(-c3ccccc3)cnc2n(O)c1=O [Example 49, Ethyl 1,4-dihydroxy-2-oxo-6-phenyl-1,2-dihydro-1,8-naphthyridine-3-carboxylate]",< 100 µM
17,"O=c1c(-c2ccccc2)c(O)c2cc(/C=C/c3ccccc3)cnc2n1O [Example 55, 1,4-Dihydroxy-3-phenyl-6-[(E)-2-phenylvinyl]-1,8-naphthyridin-2(1H)-one]",< 100 µM
18,"O=c1cc(-c2ccncc2)c2cccnc2n1O [Example 203, 1-hydroxy-4-pyridin-4-yl-1,8-naphthyridin-2(1H)-one]",< 100 µM
19,"COc1ccccc1NC(=O)c1c(O)c2cccnc2n(O)c1=O [Example 11, 1,4-Dihydroxy-N-(2-methoxyphenyl)-2-oxo-1,2-dihydro-1,8-naphthyridine-3-carboxamide]",< 100 µM
20,"CCOC(=O)c1c(O)c2cc(Cc3ccccc3)cnc2n(O)c1=O [Example 63, Ethyl 6-benzyl-1,4-dihydroxy-2-oxo-1,2-dihydro-1,8-naphthyridine-3-carboxylate]",< 100 µM
21,"Nc1cccc(-c2cccc(Cc3cc(=O)n(O)c4ncccc34)c2)c1 [Example 233, 4-[(3′-aminobiphenyl-3-yl)methyl]-1-hydroxy-1,8-naphthyridin-2(1H)-one]",< 100 µM
22,"COc1ccccc1-c1c(O)c2cccnc2n(O)c1=O [Example 39, 1,4-Dihydroxy-3-(2-methoxyphenyl)-1,8-naphthyridin-2(1H)-one]",< 100 µM
23,"O=c1c(-c2ccccc2)c(O)c2cc(Cc3ccccc3)cnc2n1O [Example 52, 6-Benzyl-1,4-dihydroxy-3-phenyl-1,8-naphthyridin-2(1H)-one]",< 100 µM
24,"COc1cccc(NC(=O)c2c(O)c3cccnc3n(O)c2=O)c1 [Example 12, 1,4-Dihydroxy-N-(3-methoxyphenyl)-2-oxo-1,2-dihydro-1,8-naphthyridine-3-carboxamide]",< 100 µM

row,Compound,IC50
1,"CCOC(=O)c1c(O)c2cc(C(C)=O)cnc2n(O)c1=O [Example 70, ethyl 6-acetyl-1,4-dihydroxy-2-oxo-1,2-dihydro-1,8-naphthyridine-3-carboxylate]",< 100 µM
2,"O=c1cc(NCC(c2ccccc2)N2CCOCC2)c2cccnc2n1O (centres unmarked) [Example 110, 1-Hydroxy-4-[(2-morpholin-4-yl-2-phenylethyl)amino]-1,8-naphthyridin-2(1H)-one]",< 100 µM
3,"CCOC(=O)c1c(-c2ccc(-c3ccc(CN)cc3)cc2)c2cccnc2n(O)c1=O [Example 243, Ethyl 4-[4′-(aminomethyl)biphenyl-4-yl]-1-hydroxy-2-oxo-1,2-dihydro-1,8-naphthyridine-3-carboxylate]",< 100 µM
4,"CC(Nc1cc(=O)n(O)c2ncccc12)c1ccccc1 (centres unmarked) [Example 157, 1-hydroxy-4-[(1-phenylethyl)amino]-1,8-naphthyridin-2(1H-one)]",< 100 µM
5,"CN(Cc1ccccc1)C(=O)c1c(O)c2cccnc2n(O)c1=O [Example 7, N-Benzyl-1,4-dihydroxy-N-methyl-2-oxo-1,2-dihydro-1,8-naphthyridine-3-carboxamide]",< 100 µM
6,"CCOC(=O)c1c(-c2ccc(CCc3ccncc3)cc2)c2cccnc2n(O)c1=O [Example 262, Ethyl 4-[4-(2-pyridin-4-ylethyl)phenyl]-hydroxy-2-oxo-1,2-dihydro-1,8-naphthyridin-3-carboxylate]",< 100 µM
7,"CNC(=O)c1cccc(-c2cc(=O)n(O)c3ncccc23)c1 [Example 180, 3-(1-hydroxy-2-oxo-1,2-dihydro-1,8-naphthyridin-4-yl)-N-methylbenzamide]",< 100 µM
8,"O=C(Nc1ccccc1)c1c(O)c2cccnc2n(O)c1=O [Example 20, 1,4-Dihydroxy-2-oxo-N-phenyl-1,2-dihydro-1,8-naphthyridine-3-carboxamide]",< 100 µM
9,"C[C@@H](Nc1cc(=O)n(O)c2ncccc12)c1ccccc1 [Example 125, 1-hydroxy-4-{[(1R)-1-phenylethyl]amino}-1,8-naphthyridin-2(1H)-one]",< 100 µM
10,"CN1CCN(c2cc(=O)n(O)c3ncccc23)CC1=O [Example 148, 1-hydroxy-4-(4-methyl-3-oxo-1-piperazinyl)-1,8-naphthyridin-2 (1H-one)]",< 100 µM
11,"O=c1cc(N2CCc3ccc(-c4cccnc4)cc3C2)c2cccnc2n1O [Example 255, 1-hydroxy-4-(7-pyridin-3-yl-3,4-dihydroisoquino1in-2(1H)-yl)-1,8-naphthyridin-2(1H)-one]",< 100 µM
12,"O=c1cc(N2CCc3ccccc3C2)c2cccnc2n1O [Example 119, 4-(3,4-dihydroisoquinolin-2(1H)-yl)-1-hydroxy-1,8-naphthyridin-2(1H)-one]",< 100 µM
13,"O=c1cc(N2CCC[C@@H]2CF)c2cccnc2n1O [Example 117, 4-[(2R)-2-(fluoromethyl)pyrrolidin-1-yl]-1-hydroxy-1,8-naphthyridin-2(1H)-one]",< 100 µM
14,"Nc1ccc(Cc2ccc(-c3cc(=O)n(O)c4ncccc34)cc2)cc1 [Example 239, 4-[4-(4-aminobenzyl)phenyl]-1-hydroxy-1,8-naphthyridin-2(1H)-one]",< 100 µM
15,"O=C(CN1CCN(Cc2cccc(-c3cc(=O)n(O)c4ncccc34)c2)CC1)N1CCCC1 [Example 208, 1-hydroxy-4-[3-({4-[2-oxo-2-(1-pyrrolidinyl)ethyl]-1-piperazinyl}methyl)phenyl]-1,8-naphthyridin-2(1H-one)]",< 100 µM
16,"O=c1c(-c2ccccc2)c(O)c2cc(F)cnc2n1O [Example 48, 6-Fluoro-1,4-dihydroxy-3-phenyl-1,8-naphthyridin-2(1H)-one]",< 100 µM
17,"CCOC(=O)c1c(N2CCc3ccc(-c4cccc(F)c4)cc3C2)c2cccnc2n(O)c1=O [Example 259, ethyl 4-[7-(3-fluorophenyl)-3,4-dihydroisoquinolin-2(1H)-yl]-1-hydroxy-2-oxo-1,2-dihydro-1,8-naphthyridine-3-carboxylate]",< 100 µM
18,"Nc1cnc2c(c1)c(O)c(-c1ccccc1)c(=O)n2O [Example 250, 6-amino-1,4-dihydroxy-3-phenyl-1,8-naphthyridin-2(1H)-one]",< 100 µM
19,"O=c1cc(N2CCc3ncccc3C2)c2cccnc2n1O [Example 123, 4-(7,8-dihydro-1,6-naphthyridin-6(5H)-yl)-1-hydroxy-1,8-naphthyridin-2(1H)-one]",< 100 µM
20,"O=C(NCc1ccccc1)c1c(O)c2cccnc2n(O)c1=O [Example 19, N-benzyl-1,4-dihydroxy-2-oxo-1,2-dihydro-1,8-naphthyridine-3-carboxamide]",< 100 µM
21,"O=c1cc(-c2cccc(O)c2)c2cccnc2n1O [Example 237, 1-hydroxy-4-(3-hydroxyphenyl)-1,8-naphthyridin-2(1H)-one]",< 100 µM
22,"COC(=O)c1cnc2c(c1)c(O)c(C(=O)NCc1ccccc1)c(=O)n2O [Example 91, Methyl 6-[(benzylamino)carbonyl]-5,8-dihydroxy-7-oxo-7,8-dihydro-1,8-naphthyridine-3-carboxylate]",< 100 µM
23,"NC(=O)c1cccc(-c2cc(=O)n(O)c3ncccc23)c1 [Example 196, 3-(1-hydroxy-2-oxo-1,2-dihydro-1,8-naphthyridin-4-yl)benzamide]",< 100 µM
